Measurements from the supplement of paper PMC6289059.
Some of the results follow. Single values are uncertain, as repeats are few or missing.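 Hepatocyte-like cells derived from human stem cells with CRISPR-disrupted DGUOK model liver mtDNA depletion syndrome. Each well's ATP signal was scored against other wells on the same plate, and drugs scoring 3 or above were primary hits.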

These compounds were tested on DGUOK Δ14/Δ5 iPSC-derived hepatocyte-like cells (SV20) (assay: ATP level (CellTiter-Glo luminescence) Z score relative to plate distribution, under 2-DG glycolysis block; higher = more cellular ATP (rescue of mitochondrial ATP production)). Details: 5 µM; treatment time: day 15 to day 20 of differentiation (5 days); 2-deoxy-D-glucose: 20 mM for 24 h before assay.

SMILES | ATP level
C[C@@H]1CC[C@@]2(OC1)O[C@H]1C[C@H]3[C@@H]4CC[C@@H]5C[C@@H](O)CC[C@]5(C)[C@H]4CC[C@]3(C)[C@H]1[C@@H]2C | inactive: -1.6
CCCCCCCCCCCCCCCC(=O)NCCO | inactive: -0.353
C=C1C2CC[C@@]3(C)[C@H](c4ccoc4)OC(=O)C[C@]13O[C@H]1CC(O)C(C)(C)C(CC(=O)OC)[C@@]21C (stereo partly drawn) [3alpha-HYDROXY-3-DEOXYANGOLENSIC ACID METHYL ESTER] | inactive: -3.03
O=C(O)c1ccccc1Nc1ccccc1 | inactive: 0.254
Nc1ncnc(Nc2ccc(Cl)cc2)n1 | inactive: 1.01
CC(=O)O[C@H]1CC[C@]2(C)C3=C(CC[C@H]2C1(C)C)[C@]1(C)CC[C@H]([C@H](C)CCC=C(C)C)[C@@]1(C)CC3 | inactive: 1.73
CC1CCc2c(N3CCC(O)CC3)c(F)cc3c(=O)c(C(=O)O)cn1c23 (stereo not given) | inactive: -3.6
Clc1ccc(COC(Cn2ccnc2)c2ccc(Cl)cc2Cl)c(Cl)c1 (stereo not given) | inactive: 1.93
Cc1cc(=O)n(-c2ccccc2)n1C | inactive: -0.215
NC12CC3CC(CC(C3)C1)C2 | inactive: 1.25
CO[C@H]1O[C@@H]2O[C@@]3(C)CC[C@H]4[C@H](C)CC[C@@H]([C@H]1C)[C@@]24OO3 | inactive: 1.83
O=c1c2ccccc2oc2ccccc12 | inactive: -0.223
CC(C)(C(=O)c1cccnc1)c1cccnc1 | inactive: 1.47
NCCCCNCCCN | inactive: 0.408
CN1CC(=O)NC1=N | inactive: -2.63
C=CC(C)(O)CCC1C(=C)CC(O)C2C(C)(C)CCCC12C (stereo not given) | inactive: -5.6
CC(=O)N(O)CCCCCNC(=O)CCC(=O)N(O)CCCCCNC(=O)CCC(=O)N(O)CCCCCN | inactive: 0.634
O=C1Cc2cc(CCN3CCN(c4nsc5ccccc45)CC3)c(Cl)cc2N1 | inactive: -0.537
CC(C)/N=c1\cc2n(-c3ccc(Cl)cc3)c3ccccc3nc-2cc1Nc1ccc(Cl)cc1 | active: 4.62
CCNC(=O)CC[C@H](N)C(=O)O | inactive: 0.758
CO[C@@]1(NC(=O)CSCC#N)C(=O)N2C(C(=O)O)=C(CSc3nnnn3C)CS[C@@H]21 | inactive: 1.21
C[C@@H]1[C@H](O)[C@@H](C)/C=C/C=C/C=C/C=C/C=C/C=C/C=C/[C@H](O[C@@H]2O[C@H](C)[C@@H](O)[C@H](N)[C@@H]2O)C[C@@H]2O[C@](O)(C[C@@H](O)C[C@@H](O)[C@H](O)CC[C@@H](O)C[C@@H](O)CC(=O)O[C@H]1C)C[C@H](O)[C@H]2C(=O)O | inactive: -0.128
CCOC(=O)C(C)(C)Oc1ccc(Cl)cc1 | inactive: 1.33

SMILES | ATP level
CCC(NC(C)C)C(O)c1ccc(O)c(O)c1 (stereo not given) | inactive: 1.76
CCC(Cc1c(I)cc(I)c(N)c1I)C(=O)O (stereo not given) | inactive: 1.91
CN1CCc2cccc3c2[C@H]1Cc1ccc(O)c(O)c1-3 | inactive: -2.08
CN(C)c1ccc(O)c2c1C[C@H]1C[C@H]3[C@H](N(C)C)C(=O)C(C(N)=O)=C(O)[C@@]3(O)C(=O)C1=C2O | inactive: -1.61
C[C@]12CC[C@@H]3c4ccc(O)cc4CC[C@H]3[C@@H]1CC[C@@H]2OC(=O)CCC1CCCC1 | inactive: 0.032
COc1cc(OC)c(C(=O)CCCN2CCCC2)c(OC)c1 | inactive: 0.803
N#CC(c1ccc(Cl)cc1)c1c(Cl)cc(-n2ncc(=O)[nH]c2=O)cc1Cl (stereo not given) | inactive: 0.872
O.O.O.O.O=C([O-])CC(O)(CC(=O)[O-])C(=O)[O-].[Li+].[Li+].[Li+] | inactive: 1.18
O=C[C@H](O)[C@H](O)CO | inactive: -1.62
CCN1C(=O)NC(c2ccccc2)C1=O (stereo not given) | inactive: 1.54
COc1ccccc1N1CCN(CC(O)COc2cccc3ccccc23)CC1 (stereo not given) | inactive: -8.43
CN1CCC(=C2c3ccccc3CC(=O)c3sccc32)CC1 | inactive: 0.669
CC[C@H](CC[C@@H](C)[C@H]1CC[C@H]2[C@@H]3CC=C4C[C@@H](O)CC[C@]4(C)[C@H]3CC[C@]12C)C(C)C [beta-SITOSTEROL] | inactive: -0.581
CCCCC[C@H](CC(=O)O)C(=O)O | inactive: 0.83
CCCN(CCC)C(=O)C(CCC(=O)O)NC(=O)c1ccccc1 (stereo not given) | inactive: -4.89
CC(C)(Sc1cc(C(C)(C)C)c(O)c(C(C)(C)C)c1)Sc1cc(C(C)(C)C)c(O)c(C(C)(C)C)c1 | inactive: 0.916
COc1cc(-c2coc3cc(OC)c(OC)c(OC)c3c2=O)cc(OC)c1OC | inactive: -1.47
C[C@]12CCC3c4ccc(OC(=O)c5ccccc5)cc4CCC3C1CCC2=O (stereo not given in full) | inactive: -15.3
Oc1ccc(Cl)c2cccnc12 | inactive: -3.03
Nc1c(Br)cc(Br)cc1CN[C@H]1CC[C@H](O)CC1 | inactive: -1.27
CCC(=O)c1ccc(O)cc1 | inactive: 0.548
COc1ccc(-c2c(O)c3c(OC)c4c(cc3oc2=O)OC(C)(C)C=C4)cc1 | inactive: 0.404
CC(=O)N[C@@H](CCC(N)=O)C(=O)O | inactive: 1.26

Three entries from above, with tabs:
SMILES	ATP level
CC(C)(C(=O)c1cccnc1)c1cccnc1	inactive: 1.47
C[C@]12CC[C@@H]3c4ccc(O)cc4CC[C@H]3[C@@H]1CC[C@@H]2OC(=O)CCC1CCCC1	inactive: 0.032
COc1ccccc1N1CCN(CC(O)COc2cccc3ccccc23)CC1 (stereo not given)	inactive: -8.43

4 compounds from above, sorted by length of the SMILES, low to high.
SMILES | ATP level
CCC(NC(C)C)C(O)c1ccc(O)c(O)c1 (stereo not given) | inactive: 1.76
Nc1c(Br)cc(Br)cc1CN[C@H]1CC[C@H](O)CC1 | inactive: -1.27
CCCN(CCC)C(=O)C(CCC(=O)O)NC(=O)c1ccccc1 (stereo not given) | inactive: -4.89
COc1ccccc1N1CCN(CC(O)COc2cccc3ccccc23)CC1 (stereo not given) | inactive: -8.43

Going on with the list:

SMILES | ATP level
CC(=O)NO | inactive: -1.16
CN1CCCN=C1COC(=O)C(O)(c1ccccc1)C1CCCCC1 (stereo not given) | inactive: -0.217
CC(C)(Oc1ccc(Cl)cc1)C(=O)O | inactive: 1.12
OC[C@@H](O)C(O)[C@H](O)CO | inactive: -4.56
CCCCCCCCCCC[C@@H](C[C@@H]1OC(=O)[C@H]1CCCCCC)OC(=O)[C@H](CC(C)C)NC=O | inactive: 0.212
COc1ccc(-c2oc3ccccc3c(=O)c2OC)cc1 | inactive: -1.62
O=C1O[C@H](CO)[C@@H](O)[C@H](O)[C@H]1O | active: 3.43
C=CCCCCCCCCCCCC(O)CC(O)COC(C)=O (stereo not given) | inactive: 2.87
CC(C)(S)[C@@H](N)C(=O)O | inactive: 1.99
O=C(O)C1CSCN1 (stereo not given) | inactive: -0.138
O=C(O)CCCN1C(=O)c2cccc3cccc(c23)C1=O | inactive: 2.82
CO[C@H]1C[C@H](O[C@H]2[C@H](C)[C@@H](O[C@@H]3O[C@H](C)C[C@H](N(C)C)[C@H]3OC(C)=O)[C@@H](C)C[C@@]3(CO3)C(=O)[C@H](C)[C@@H](OC(C)=O)[C@@H](C)[C@@H](C)OC(=O)[C@@H]2C)O[C@@H](C)[C@@H]1OC(C)=O | inactive: 1.11
Cc1cccc(C)c1NC(=O)C1CCCCN1C (stereo not given) | inactive: 0.0366
COc1ccc(C2C(=O)c3ccccc3C2=O)cc1 | inactive: 0.63
COc1cc(/C=C/C(=O)N2CCC=CC2=O)cc(OC)c1OC | inactive: 1.08
CN(C)c1ccc2nc3ccc(=[N+](C)C)cc-3sc2c1 | inactive: -5.58
N#Cc1ccc2[nH]cc(CCCCN3CCN(c4ccc5oc(C(N)=O)cc5c4)CC3)c2c1 | inactive: 1.7
CN1C(C(=O)Nc2ccccn2)=C(O)c2sccc2S1(=O)=O | active: 9.21
COc1cc(OC)c2c(OC)c(-c3ccc4c(c3)OCO4)c(=O)oc2c1 | inactive: -1.02
Cc1ncc([N+](=O)[O-])n1CC(O)CCl (stereo not given) | inactive: -13.1
C[C@]12C=CC(=O)C=C1CC[C@@H]1[C@@H]2[C@@H](O)C[C@@]2(C)[C@H]1CC[C@]2(O)C(=O)COP(=O)(O)O | inactive: 1.1
C[C@]12CC[C@H]3C(=CCc4cc(O)ccc43)[C@@H]1CCC2=O | inactive: -0.736
N=C(N)N | inactive: -0.144

SMILES | ATP level
Cc1c(C(N)=O)cc([N+](=O)[O-])cc1[N+](=O)[O-] | inactive: 0.704
C=C[C@H]1CN2CC[C@H]1C[C@@H]2[C@@H](O)c1ccnc2ccc(OC)cc12 | inactive: 1.6
Oc1ccc(Cl)c2c1CCC2 | inactive: 1.09
CS(=O)(=O)c1ccc(C2=C(c3ccccc3)C(=O)OC2)cc1 | inactive: 1.05
COc1ccc2c(c1OC)OC[C@@H](c1ccc(OC)c(OC)c1OC)C2 | inactive: -1.69
Cc1ccnc2c1NC(=O)c1cccnc1N2C1CC1 | inactive: 1.46
CN(C)CCC=C1c2ccccc2CCc2ccccc21 | inactive: -6.21
C#C[C@]1(O)CC[C@H]2[C@@H]3CCc4cc(OC5CCCC5)ccc4[C@H]3CC[C@@]21C | inactive: -1.42
Cc1[nH]c(=O)c(C#N)cc1-c1ccncc1 | active: 3.16
COC(=O)C[C@H]1C(C)(C)C(=O)[C@@H]2CC3=C(CC[C@]4(C)C3=CC(=O)O[C@H]4c3ccoc3)[C@@]1(C)C2=O | inactive: -2.15
C=C1C(=O)[C@]23[C@H](CC[C@@H]1[C@@H]2O)[C@]12CO[C@@]3(O)[C@H](O)[C@H]1C(C)(C)CC[C@@H]2O | inactive: -0.889
O=C(Nc1ccccc1)c1ccccc1O | inactive: -2.4
COCC1=C(C(=O)OC(C)OC(=O)OC(C)C)N2C(=O)[C@@H](NC(=O)/C(=N\OC)c3csc(N)n3)[C@H]2SC1 (stereo not given in full) | inactive: -3.42
CCN(CC)CCOC(=O)C(c1ccccc1)C1CCCCC1 (stereo not given) | inactive: -0.433
O=C(CCCN1CCC(O)(c2ccc(Br)cc2)CC1)c1ccc(F)cc1 | inactive: -1.86
CNCC[C@H](Oc1cccc2ccccc12)c1cccs1 | inactive: -9.47
CC(=O)c1ccc2c(c1)N(CCCN1CCC(CCO)CC1)c1ccccc1S2 | inactive: -11.7
CC(C)CCCC(C)C1CCC2C3CCC4CCCCC4(C)C3CCC12C (stereo not given) | inactive: -1.53
CCCCC(CC)CN1CN(CC(CC)CCCC)CC(C)(N)C1 (stereo not given) | inactive: 1.95
COc1cc2c(cc1OC)C(=O)C(CC1CCN(Cc3ccccc3)CC1)C2 (stereo not given) | inactive: 0.647
CCOc1ccc(C(=O)c2ccc(OC)c(O)c2O)cc1 | inactive: 0.745
